The values that follow come from publication PMC10766952.

Chains of the proteins cited; added tags and fusions are not shown.
UniProt Q4JK59: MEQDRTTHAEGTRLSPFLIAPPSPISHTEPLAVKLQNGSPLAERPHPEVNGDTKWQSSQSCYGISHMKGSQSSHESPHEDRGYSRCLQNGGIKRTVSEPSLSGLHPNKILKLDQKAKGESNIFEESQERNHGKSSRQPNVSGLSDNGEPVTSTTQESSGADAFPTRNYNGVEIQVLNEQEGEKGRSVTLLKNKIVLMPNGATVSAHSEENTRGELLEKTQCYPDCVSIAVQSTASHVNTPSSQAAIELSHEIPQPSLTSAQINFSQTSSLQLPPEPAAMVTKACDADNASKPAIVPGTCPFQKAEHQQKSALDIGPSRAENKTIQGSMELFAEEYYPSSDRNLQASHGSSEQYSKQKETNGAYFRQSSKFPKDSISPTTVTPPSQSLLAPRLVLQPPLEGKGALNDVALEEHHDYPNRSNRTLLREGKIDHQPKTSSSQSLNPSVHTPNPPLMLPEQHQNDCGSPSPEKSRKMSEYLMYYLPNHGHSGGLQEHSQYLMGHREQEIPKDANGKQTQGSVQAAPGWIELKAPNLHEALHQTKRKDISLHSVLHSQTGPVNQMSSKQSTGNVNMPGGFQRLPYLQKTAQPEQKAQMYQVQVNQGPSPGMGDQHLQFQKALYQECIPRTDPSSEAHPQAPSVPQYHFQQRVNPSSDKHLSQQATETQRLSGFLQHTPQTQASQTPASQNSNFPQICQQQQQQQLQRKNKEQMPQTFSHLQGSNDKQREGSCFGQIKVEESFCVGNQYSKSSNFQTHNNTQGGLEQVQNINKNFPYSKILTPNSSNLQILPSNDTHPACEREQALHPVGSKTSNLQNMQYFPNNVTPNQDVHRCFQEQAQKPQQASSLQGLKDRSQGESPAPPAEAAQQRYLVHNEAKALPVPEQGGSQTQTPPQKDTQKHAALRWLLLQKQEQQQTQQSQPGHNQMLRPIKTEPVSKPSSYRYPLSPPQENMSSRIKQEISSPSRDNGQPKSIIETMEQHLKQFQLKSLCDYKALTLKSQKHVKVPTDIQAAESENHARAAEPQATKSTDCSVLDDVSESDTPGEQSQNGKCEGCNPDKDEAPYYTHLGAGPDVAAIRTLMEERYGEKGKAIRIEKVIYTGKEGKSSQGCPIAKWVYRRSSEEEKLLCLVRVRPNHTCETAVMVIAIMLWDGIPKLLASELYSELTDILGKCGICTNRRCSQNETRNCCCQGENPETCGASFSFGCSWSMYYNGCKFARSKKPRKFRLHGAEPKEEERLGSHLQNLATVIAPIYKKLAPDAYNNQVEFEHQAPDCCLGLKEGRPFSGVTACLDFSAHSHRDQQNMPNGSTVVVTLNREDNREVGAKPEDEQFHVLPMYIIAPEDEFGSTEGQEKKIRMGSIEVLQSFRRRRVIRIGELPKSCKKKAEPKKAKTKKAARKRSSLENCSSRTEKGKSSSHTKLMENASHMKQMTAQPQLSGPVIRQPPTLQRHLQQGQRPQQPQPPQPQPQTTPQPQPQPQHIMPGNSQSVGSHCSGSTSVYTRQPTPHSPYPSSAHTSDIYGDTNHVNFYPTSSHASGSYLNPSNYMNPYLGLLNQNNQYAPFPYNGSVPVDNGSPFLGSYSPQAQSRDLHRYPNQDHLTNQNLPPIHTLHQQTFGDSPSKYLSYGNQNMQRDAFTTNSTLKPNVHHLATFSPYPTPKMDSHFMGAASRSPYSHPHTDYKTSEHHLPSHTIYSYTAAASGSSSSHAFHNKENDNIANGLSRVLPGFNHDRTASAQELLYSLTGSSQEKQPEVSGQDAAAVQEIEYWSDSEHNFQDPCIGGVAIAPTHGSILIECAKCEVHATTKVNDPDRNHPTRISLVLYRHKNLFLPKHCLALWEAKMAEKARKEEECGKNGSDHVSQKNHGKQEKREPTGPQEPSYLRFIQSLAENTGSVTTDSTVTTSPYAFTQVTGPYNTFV
UniProt P42230: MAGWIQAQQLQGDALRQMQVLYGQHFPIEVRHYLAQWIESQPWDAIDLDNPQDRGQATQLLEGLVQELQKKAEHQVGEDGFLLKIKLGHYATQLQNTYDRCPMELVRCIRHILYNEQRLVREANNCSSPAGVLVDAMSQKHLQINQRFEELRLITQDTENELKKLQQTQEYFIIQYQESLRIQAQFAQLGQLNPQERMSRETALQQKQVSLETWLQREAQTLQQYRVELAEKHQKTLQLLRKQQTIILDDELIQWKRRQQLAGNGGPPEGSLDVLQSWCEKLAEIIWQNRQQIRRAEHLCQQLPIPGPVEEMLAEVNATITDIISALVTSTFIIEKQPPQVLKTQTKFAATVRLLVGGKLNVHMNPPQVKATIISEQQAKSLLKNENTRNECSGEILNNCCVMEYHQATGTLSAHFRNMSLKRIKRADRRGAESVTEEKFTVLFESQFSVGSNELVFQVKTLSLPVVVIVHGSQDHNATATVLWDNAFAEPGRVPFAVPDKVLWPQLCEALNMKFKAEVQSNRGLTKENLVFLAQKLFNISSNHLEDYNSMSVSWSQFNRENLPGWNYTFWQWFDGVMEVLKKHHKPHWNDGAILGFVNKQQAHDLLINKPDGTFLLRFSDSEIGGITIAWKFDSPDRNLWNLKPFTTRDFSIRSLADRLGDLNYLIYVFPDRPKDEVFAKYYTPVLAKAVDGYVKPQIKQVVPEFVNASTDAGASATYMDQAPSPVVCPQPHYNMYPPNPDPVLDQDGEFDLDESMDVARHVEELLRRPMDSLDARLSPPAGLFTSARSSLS

The target of the test is Tet2 (ten-eleven translocation-2 methylcytosine dioxygenase) (UniProt Q4JK59). In words: co-IP; lysates (500 ug protein) of Hepa1-6 cells with Tet2 overexpression, with or without IL-2 stimulation; 2 ug anti-Tet2 overnight at 4 °C, protein G magnetic beads 2 h at 4 °C, three washes with lysis buffer, immunoblot for p-Stat5a.

No constants are given. Whether binding was seen depends on the method and setting. In cells and extracts the contact can be indirect. Some entries that bind do so weakly or less than the wild type.

In the case of “activated Stat5a (p-Stat5a) (from UniProt P42230 1-793)”, the binding entry is “binds”.
